# PubChem BioAssay AID493246, Drosophila RNAi Screening Center – 2011
# Assay: 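Genes fly cells need to grow and stay alive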 (primary screen)
# Cell system: Drosophila Kc and S2R+ cells
# Reagents: long dsRNA against Drosophila genes
# Measured: 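Cell number per well after knock-down, printed as raw plate values; calls were based on per-plate z-scores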
# Reading the numbers: Kc cell number and S2R+ cell number: higher = more cells remaining
# Hit rule: 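Active when the per-plate z-score of cell number is 3 or more in the direction of fewer cells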
# In all, the deposit lists about 21,000 reagents; this is an unselected part of those that have a named target and a result. Of all reagents, 429 (2%) got an active call. 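Values are raw and not normalised between plates; calls rest on per-plate z-scores that were not deposited.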 Not given: the amount of reagent, the time to read-out.
target,DRSC id,"Kc cell number, rep 1","Kc cell number, rep 2","S2R+ cell number, rep 1","S2R+ cell number, rep 2",outcome
CG13589,DRSC04225,1.93e6,1.92e6,1.30e6,1.38e6,inactive
mRpL10,DRSC00312,9.32e5,1.52e6,9.84e5,9.80e5,inactive
peng,DRSC20583,1.48e6,1.49e6,9.89e5,1.12e6,inactive
Desat2,DRSC15919,1.40e6,1.43e6,1.30e6,1.37e6,inactive
l(1)G0289,DRSC18215,6.02e5,,9.81e5,,inactive
CG7457,DRSC10849,1.54e6,1.49e6,1.23e6,1.29e6,inactive
CG7110,DRSC03011,1.30e6,1.36e6,1.32e6,1.27e6,inactive
CG7110,DRSC03012,1.56e6,1.62e6,1.24e6,1.40e6,inactive
tra2,DRSC07708,1.56e6,1.53e6,1.22e6,1.29e6,inactive
Rpn3,DRSC03318,9.59e5,9.85e5,6.80e5,2.69e5,active
CG15278,DRSC02481,1.51e6,1.54e6,1.30e6,1.45e6,inactive
lap,DRSC12628,1.56e6,1.62e6,1.40e6,1.46e6,inactive
ATPsynCF6L,DRSC08232,1.35e6,1.28e6,1.15e6,1.20e6,inactive
NSD,DRSC15691,1.50e6,1.50e6,1.05e6,1.08e6,inactive
Eps-15,DRSC04288,1.26e6,1.41e6,8.51e5,9.40e5,inactive
pins,DRSC17043,1.55e6,1.59e6,9.62e5,1.12e6,inactive
tx (retired record),DRSC16931,5.63e5,,7.00e5,,inactive
CG34169,DRSC01579,1.57e6,1.63e6,9.59e5,1.20e6,inactive
mus81,DRSC18180,1.47e6,1.44e6,9.90e5,1.07e6,inactive
mus81,DRSC18644,1.48e6,1.48e6,1.02e6,1.12e6,inactive
CG11638,DRSC18167,1.53e6,1.52e6,1.05e6,1.22e6,inactive
CG11638,DRSC18640,1.46e6,1.44e6,1.06e6,1.18e6,inactive
up,DRSC20382,5.53e5,,7.11e5,,inactive
ImpL2,DRSC08666,1.34e6,1.38e6,1.29e6,1.25e6,inactive
CR14117,DRSC10121,1.51e6,1.52e6,1.38e6,1.56e6,inactive
CG5726,DRSC06946,1.39e6,1.43e6,1.19e6,1.26e6,inactive
gd,DRSC20336,1.49e6,1.50e6,1.05e6,1.13e6,inactive
Nepl17,DRSC14880,1.55e6,1.58e6,1.09e6,1.20e6,inactive
CG15731,DRSC19698,1.69e6,1.59e6,1.11e6,1.26e6,inactive
NELF-B,DRSC17734,6.09e5,,9.62e5,,inactive
CG14491,DRSC06462,1.55e6,1.62e6,1.27e6,1.35e6,inactive
CG31068,DRSC13820,1.06e6,1.22e6,1.04e6,1.04e6,inactive
CG33229,DRSC07863,1.54e6,1.66e6,9.36e5,1.11e6,inactive
CG43325,DRSC04157,1.53e6,1.61e6,1.32e6,1.30e6,inactive
Usp39,DRSC20032,1.64e6,1.73e6,1.11e6,1.21e6,inactive
Arl4,DRSC17156,1.53e6,1.44e6,1.01e6,1.11e6,inactive
BtbVII,DRSC08151,1.26e6,1.38e6,9.86e5,1.15e6,inactive
BtbVII,DRSC08415,1.06e6,1.16e6,1.42e6,6.75e5,inactive
CG16782,DRSC18118,1.52e6,1.57e6,1.08e6,1.27e6,inactive
CG8461,DRSC16424,1.84e6,1.90e6,1.45e6,1.48e6,inactive
CAH7,DRSC15524,1.61e6,1.60e6,1.27e6,1.45e6,inactive
cactin,DRSC20576,1.45e6,1.51e6,8.26e5,9.42e5,inactive
CG13965,DRSC02307,1.57e6,1.67e6,1.24e6,2.87e5,inactive
CG13121 (retired record),DRSC02217,1.63e6,1.66e6,1.28e6,1.47e6,inactive
Mtpalpha,DRSC01994,1.26e6,1.31e6,1.13e6,1.19e6,inactive
CG33557,DRSC17854,1.58e6,1.67e6,1.08e6,1.21e6,inactive
CG15517,DRSC15056,1.52e6,1.54e6,1.08e6,1.16e6,inactive
CG31407,DRSC12761,1.42e6,1.56e6,1.07e6,1.21e6,inactive
CG13337,DRSC06371,1.55e6,1.62e6,1.37e6,1.45e6,inactive
CG5860,DRSC15896,1.25e6,1.41e6,1.21e6,1.29e6,inactive
CG7423,DRSC20044,1.50e6,1.50e6,1.05e6,1.21e6,inactive
qua,DRSC03598,1.55e6,1.64e6,1.22e6,1.40e6,inactive
CG17217,DRSC02592,1.59e6,1.62e6,1.24e6,1.37e6,inactive
CG15343,DRSC18028,1.56e6,1.51e6,1.08e6,1.18e6,inactive
CG15365,DRSC18038,7.51e5,8.37e5,4.75e5,5.25e5,active
Cul2,DRSC03710,1.33e6,1.46e6,1.09e6,1.15e6,inactive
CG7080,DRSC16193,1.57e6,1.57e6,1.19e6,1.23e6,inactive
CG3277,DRSC00588,1.54e6,1.37e6,1.14e6,1.28e6,inactive
Tmem214,DRSC02924,1.56e6,1.76e6,1.32e6,1.43e6,inactive
Tmem214,DRSC02925,1.72e6,1.80e6,1.38e6,1.50e6,inactive

Reagents listed so far marked active:
target,DRSC id,"Kc cell number, rep 1","Kc cell number, rep 2","S2R+ cell number, rep 1","S2R+ cell number, rep 2",outcome
Rpn3,DRSC03318,9.59e5,9.85e5,6.80e5,2.69e5,active
CG15365,DRSC18038,7.51e5,8.37e5,4.75e5,5.25e5,active
